Results deposited as PubChem BioAssay AID1259308 (NCATS, 2017).
The whole screen tested about 59,000 reagents; below is a random part of them. Of all reagents, about 1,510 (2.6%) got an active call. 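Calls use total luciferase alone and ignore viability, so some active siRNAs may act by altering cell number.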 A number with no mark means an inactive call. Reagents against one gene are numbered here. No sequences are given here.

Assay: 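Genes whose loss raises luciferase production in HEK293 cells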 (primary screen)
Cells: human HEK293 embryonic kidney cells stably expressing firefly luciferase (HEK-CMV-Luc2-Hygro)
Reagents: single siRNA against human genes, 0.8 pmol siRNA per well
Timing: 72 h
Read-out: 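Reporter luminescence and viable-cell signal on separate replicate plates, given as percent of non-targeting control and median/MAD z-scores, plus per-cell luciferase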
Reading the numbers: total luciferase, z-score and total luciferase, % of control: higher = more reporter protein produced; luciferase per cell, z-score: higher = more reporter output per viable cell; viable cells, % of control: higher = more viable cells
Hit rule: 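Active when the median/MAD z-score for overall luciferase is greater than 3; a gene was taken forward for validation with new siRNAs if at least two of its three siRNAs passed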
Meaning of the calls: active = raised luciferase; inactive = no rise

gene | siRNA no. | total luciferase, z-score | total luciferase, % of control | luciferase per cell, z-score | viable cells, % of control
RNF115 (GeneID 27246) | 1 | -1.6 | 50 | 0.718 | 46.3
RNF115 (GeneID 27246) | 2 | 1.71 | 116 | 1.69 | 83.1
RNF115 (GeneID 27246) | 3 | -1.87 | 44.7 | -0.191 | 52.6
UBE2QL1 (GeneID 134111) | 1 | -0.499 | 72 | 0.115 | 78
UBE2QL1 (GeneID 134111) | 2 | 0.554 | 92.9 | 0.11 | 101
UBE2QL1 (GeneID 134111) | 3 | 0.616 | 94.1 | 0.17 | 101
TMEM105 (GeneID 284186) | 1 | 0.788 | 97.6 | 0.261 | 102
TMEM105 (GeneID 284186) | 2 | -0.818 | 65.6 | -0.5 | 83.6
TMEM105 (GeneID 284186) | 3 | 0.512 | 92.1 | 1.8 | 64
COA7 (GeneID 65260) | 1 | -0.225 | 77.4 | -0.743 | 105
COA7 (GeneID 65260) | 2 | -0.0566 | 80.8 | -0.512 | 103
COA7 (GeneID 65260) | 3 | 0.241 | 86.7 | 0.386 | 87.5
GORASP2 (GeneID 26003) | 1 | -0.189 | 78.1 | 0.471 | 77.1
GORASP2 (GeneID 26003) | 2 | -0.0538 | 80.8 | 0.033 | 89.5
GORASP2 (GeneID 26003) | 3 | 2.47 | 131 | 2.32 | 79.6
GOLGA2P11 (GeneID 255180) | 1 | -1.27 | 56.6 | -0.605 | 74.2
GOLGA2P11 (GeneID 255180) | 2 | 0.146 | 84.8 | -0.0371 | 95.7
GOLGA2P11 (GeneID 255180) | 3 | 0.0763 | 83.4 | 0.533 | 81
EQTN (GeneID 54586) | 1 | -0.958 | 62.8 | -0.609 | 82.4
EQTN (GeneID 54586) | 2 | -0.533 | 71.3 | -0.451 | 89.7
EQTN (GeneID 54586) | 3 | -1.05 | 61.1 | -0.297 | 73.8
TAS2R10 (GeneID 50839) | 1 | -0.321 | 75.5 | -1.13 | 113
TAS2R10 (GeneID 50839) | 2 | -1.42 | 53.6 | -1.87 | 98.1
TAS2R10 (GeneID 50839) | 3 | -0.16 | 78.7 | -0.736 | 107
GRAMD1C (GeneID 54762) | 1 | -0.816 | 65.7 | -0.895 | 92.9
GRAMD1C (GeneID 54762) | 2 | 4.02 (active) | 162 | 3.45 | 72.8
GRAMD1C (GeneID 54762) | 3 | 0.439 | 90.6 | 0.159 | 97.1

The list goes on; the last 3 above are carried over.
gene | siRNA no. | total luciferase, z-score | total luciferase, % of control | luciferase per cell, z-score | viable cells, % of control
GRAMD1C (GeneID 54762) | 1 | -0.816 | 65.7 | -0.895 | 92.9
GRAMD1C (GeneID 54762) | 2 | 4.02 (active) | 162 | 3.45 | 72.8
GRAMD1C (GeneID 54762) | 3 | 0.439 | 90.6 | 0.159 | 97.1
KRABD4 (GeneID 55634) | 1 | 2.07 | 123 | 0.983 | 106
KRABD4 (GeneID 55634) | 2 | -0.443 | 73.1 | -0.055 | 82.9
KRABD4 (GeneID 55634) | 3 | 1.46 | 111 | 0.494 | 109
TSPAN11 (GeneID 441631) | 1 | -0.324 | 75.4 | 1.26 | 60.5
TSPAN11 (GeneID 441631) | 2 | -0.938 | 63.2 | -1.24 | 98
TSPAN11 (GeneID 441631) | 3 | 0.306 | 88 | 0.216 | 92.9
MTPN (GeneID 136319) | 1 | 0.601 | 93.8 | 0.426 | 93.7
MTPN (GeneID 136319) | 2 | -0.858 | 64.8 | -0.415 | 80.8
MTPN (GeneID 136319) | 3 | 3.37 (active) | 149 | 2.45 | 87.2
COG6 (GeneID 57511) | 1 | -1.72 | 47.6 | -1.81 | 85.6
COG6 (GeneID 57511) | 2 | -0.0314 | 81.3 | -0.289 | 98
COG6 (GeneID 57511) | 3 | 1.97 | 121 | 2.18 | 76.1
C19orf81 (GeneID 342918) | 1 | 1.36 | 109 | 1.04 | 92.6
C19orf81 (GeneID 342918) | 2 | 1.43 | 110 | 0.97 | 95.5
C19orf81 (GeneID 342918) | 3 | -0.429 | 73.4 | -0.958 | 105
SLC25A36 (GeneID 55186) | 1 | 0.836 | 98.5 | 0.763 | 90
SLC25A36 (GeneID 55186) | 2 | -1.9 | 44.2 | -1.6 | 75.3
SLC25A36 (GeneID 55186) | 3 | 0.994 | 102 | 0.531 | 98.8
FAM227A (GeneID 646851) | 1 | -0.715 | 67.7 | 0.278 | 70.3
FAM227A (GeneID 646851) | 2 | -0.257 | 76.8 | 0.34 | 78.4
FAM227A (GeneID 646851) | 3 | 0.0734 | 83.3 | -0.466 | 105
CSF1 (GeneID 1435) | 1 | -1.48 | 52.5 | -0.528 | 67.5
CSF1 (GeneID 1435) | 2 | 0.445 | 90.7 | 0.16 | 97.2
CSF1 (GeneID 1435) | 3 | 1.5 | 112 | 1.2 | 91.1
NRGN (GeneID 4900) | 1 | 0.685 | 95.5 | 1.89 | 65
NRGN (GeneID 4900) | 2 | 0.325 | 88.3 | 0.689 | 82.3
NRGN (GeneID 4900) | 3 | -0.512 | 71.7 | -0.43 | 89.7
LCN6 (GeneID 158062) | 1 | -0.177 | 78.4 | -0.502 | 100
LCN6 (GeneID 158062) | 2 | -0.602 | 69.9 | -0.698 | 93.9
LCN6 (GeneID 158062) | 3 | -0.474 | 72.5 | -0.479 | 91.8
